In the assay the target is GST-MUC1/ECD fusion protein (human) (UniProt P15941). Kind of assay: GST-MUC1/ECD affinity adsorbate, band identified by MALDI-TOF-MS of tryptic peptides.

The chains behind the UniProt entries cited, without tags or fusion partners. Where a name states a change or a piece, a line headed by the entry shows the natural chain unless it says otherwise.
UniProt P15941: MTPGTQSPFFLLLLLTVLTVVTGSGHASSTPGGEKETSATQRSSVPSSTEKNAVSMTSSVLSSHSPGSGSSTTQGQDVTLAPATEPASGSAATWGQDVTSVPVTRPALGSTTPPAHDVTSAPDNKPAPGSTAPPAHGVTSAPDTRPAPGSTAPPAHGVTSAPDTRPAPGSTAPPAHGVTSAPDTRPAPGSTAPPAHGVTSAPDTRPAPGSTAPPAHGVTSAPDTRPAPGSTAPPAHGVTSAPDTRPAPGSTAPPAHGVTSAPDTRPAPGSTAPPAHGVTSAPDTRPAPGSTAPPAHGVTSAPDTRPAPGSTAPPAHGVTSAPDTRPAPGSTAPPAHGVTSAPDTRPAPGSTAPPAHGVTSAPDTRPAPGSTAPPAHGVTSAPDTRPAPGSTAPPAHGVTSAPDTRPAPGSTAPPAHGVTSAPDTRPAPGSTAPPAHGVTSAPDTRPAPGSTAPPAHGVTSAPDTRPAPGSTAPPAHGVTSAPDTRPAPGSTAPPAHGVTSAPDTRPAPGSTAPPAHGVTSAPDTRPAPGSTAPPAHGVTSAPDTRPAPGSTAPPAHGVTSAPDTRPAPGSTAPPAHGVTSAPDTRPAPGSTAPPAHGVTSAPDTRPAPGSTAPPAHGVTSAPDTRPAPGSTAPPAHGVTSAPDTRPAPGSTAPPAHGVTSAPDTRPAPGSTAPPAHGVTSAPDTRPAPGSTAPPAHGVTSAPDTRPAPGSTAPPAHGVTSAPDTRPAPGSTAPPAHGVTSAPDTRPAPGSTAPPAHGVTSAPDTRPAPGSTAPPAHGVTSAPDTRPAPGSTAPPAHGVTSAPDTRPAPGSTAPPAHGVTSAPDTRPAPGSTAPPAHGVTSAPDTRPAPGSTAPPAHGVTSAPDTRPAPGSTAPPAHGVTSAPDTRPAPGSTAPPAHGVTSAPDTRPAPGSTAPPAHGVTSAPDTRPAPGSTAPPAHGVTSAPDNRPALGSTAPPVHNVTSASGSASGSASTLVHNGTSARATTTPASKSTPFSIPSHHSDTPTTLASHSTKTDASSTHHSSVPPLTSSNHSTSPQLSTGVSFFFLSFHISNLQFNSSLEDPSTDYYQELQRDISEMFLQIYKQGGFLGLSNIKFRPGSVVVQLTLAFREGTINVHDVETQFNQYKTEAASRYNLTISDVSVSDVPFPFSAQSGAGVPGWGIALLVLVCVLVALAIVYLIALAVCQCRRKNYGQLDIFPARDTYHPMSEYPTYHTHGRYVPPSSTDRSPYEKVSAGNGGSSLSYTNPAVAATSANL

These are yes or no findings as the source states them, for the method shown. Some results given as binding are weak or reduced against the parent protein; the word gives no strength.

B1: ML-2 (neuregulin 2 splice isoform 6) (ligand)
chain: CYSPSLKSVQDQAYKAPVVVEGKVQGLVPAGGSSSNSTREPPASGRVALVKVLDKWPLRSGGLQREQVISVGSCVPLERNQRYIFFLEPTEQPLVFKTAFAPLDTNGKNLKKEVGKILCTDCATRPKLKKMKSQTGQVGEKQSLKCEAAAGNPQPSYRWFKDGKELNRSRDIRIKYGNGRKNSRLQFNKVKVEDAGEYVCEAENILGKDTVRGRLYVNSVSTTLSSWSGHARKCNETAKSYCVNGGVCYYIEGINQLSCKCPNGFFGQRCLEKLPLRLYMPDPKQSVLWDTPGTGVSSSQWSTSPSTLDLN
B1: the binding result is “binds”.

B2: ML-1 (neuregulin 2 splice isoform 5) (ligand)
chain: CYSPSLKSVQDQAYKAPVVVEGKVQGLVPAGGSSSNSTREPPASGRVALVKVLDKWPLRSGGLQREQVISVGSCVPLERNQRYIFFLEPTEQPLVFKTAFAPLDTNGKNLKKEVGKILCTDCATRPKLKKMKSQTGQVGEKQSLKCEAAAGNPQPSYRWFKDGKELNRSRDIRIKYGNGRKNSRLQFNKVKVEDAGEYVCEAENILGKDTVRGRLYVNSVSTTLSSWSGHARKCNETAKSYCVNGGVCYYIEGINQLSCKCPNGFFGQRCLEKLPLRLYMPDPKQSVLWDTPGTGVSSSQWSTSPKPRSCTRRGS
On to B2, for which the binding entry is recorded as “binds”.

The values above are taken from patent publication US20040018181A1.
